# In publication doi:10.1101/2020.11.23.391516:
# Results are given in words; binding and its absence hold for the method and conditions named. In cells and extracts the contact can be indirect. Some binding calls cover weakened binding; strength is not graded here. Sequences can lack the tags named with a protein.
# T1: SOBIR1-GFP (Arabidopsis thaliana) (UniProt Q9SKB2)
# T1 sequence: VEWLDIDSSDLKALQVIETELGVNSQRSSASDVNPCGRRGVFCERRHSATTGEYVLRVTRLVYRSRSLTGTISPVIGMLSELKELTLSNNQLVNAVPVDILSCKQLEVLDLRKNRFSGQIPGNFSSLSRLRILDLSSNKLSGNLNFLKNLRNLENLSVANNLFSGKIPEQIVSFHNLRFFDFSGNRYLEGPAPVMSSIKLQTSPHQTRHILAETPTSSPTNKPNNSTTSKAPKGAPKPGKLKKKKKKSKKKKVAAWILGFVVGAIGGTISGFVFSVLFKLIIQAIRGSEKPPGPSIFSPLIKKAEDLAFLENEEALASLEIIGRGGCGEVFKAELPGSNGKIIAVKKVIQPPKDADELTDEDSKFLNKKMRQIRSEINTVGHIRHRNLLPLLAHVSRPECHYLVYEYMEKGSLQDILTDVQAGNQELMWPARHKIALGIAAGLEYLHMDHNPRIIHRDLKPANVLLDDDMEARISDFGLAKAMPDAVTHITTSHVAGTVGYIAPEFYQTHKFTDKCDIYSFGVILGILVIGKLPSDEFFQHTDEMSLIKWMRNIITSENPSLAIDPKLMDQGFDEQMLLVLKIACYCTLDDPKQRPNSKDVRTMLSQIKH
# B1: PAD4-HA (protein, UniProt Q9S745 1-541)
# chain: MDDCRFETSELQASVMISTPLFTDSWSSCNTANCNGSIKIHDIAGITYVAIPAVSMIQLGNLVGLPVTGDVLFPGLSSDEPLPMVDAAILKLFLQLKIKEGLELELLGKKLVVITGHSTGGALAAFTALWLLSQSSPPSFRVFCITFGSPLLGNQSLSTSISRSRLAHNFCHVVSIHDLVPRSSNEQFWPFGTYLFCSDKGGVCLDNAGSVRLMFNILNTTATQNTEEHQRYGHYVFTLSHMFLKSRSFLGGSIPDNSYQAGVALAVEALGFSNDDTSGVLVKECIETATRIVRAPILRSAELANELASVLPARLEIQWYKDRCDASEEQLGYYDFFKRYSLKRDFKVNMSRIRLAKFWDTVIKMVETNELPFDFHLGKKWIYASQFYQLLAEPLDIANFYKNRDIKTGGHYLEGNRPKRYEVIDKWQKGVKVPEECVRSRYASTTQDTCFWAKLEQAKEWLDEARKESSDPQRRSLLREKIVPFESYANTLVTKKEVSLDVKAKNSSYSVWEANLKEFKCKMGYENEIEMVVDESDAMET
# B2: EDS1 (protein, UniProt Q9XF23 1-623)
# chain: MAFEALTGINGDLITRSWSASKQAYLTERYHKEEAGAVVIFAFQPSFSEKDFFDPDNKSSFGEIKLNRVQFPCMRKIGKGDVATVNEAFLKNLEAVIDPRTSFQASVEMAVRSRKQIVFTGHSSGGATAILATVWYLEKYFIRNPNVYLEPRCVTFGAPLVGDSIFSHALGREKWSRFFVNFVTRFDIVPRITLARKASVEETLPHVLAQLDPRNSSVQESEQRITEFYTSVMRDTSTVANQAVCELTGSAEAILETLSSFLELSPYRPAGTFVFSTEKRLVAVNNSDAILQMLFYTCQASDEQEWSLIPFRSIRDHHSYEELVQSMGMKLFNHLDGENSIESSLNDLGVSTRGRQYVQAALEEEKKRVENQKKIIQVIQQERFLKKLAWIEDEYKPKCQAHKNGYYDSFKVSNEENDFKANVKRAELAGVFDEVLGLLKKCQLPDEFEGDIDWIKLATRYRRLVEPLDIANYHRHLKNEDTGPYMKRGRPTRYIYAQRGYEHHILKPNGMIAEDVFWNKVNGLNLGLQLEEIQETLKNSGSECGSCFWAEVEELKGKPYEEVEVRVKTLEGMLREWITAGEVDEKEIFLEGSTFRKWWITLPKNHKSHSPLRDYMMDEITDT
# Target: T1, SOBIR1-GFP (Arabidopsis thaliana)
# Experiment: co-IP
row,Binder,binding
1,B1,binds
2,B2,binds
